Results are given in words; binding and its absence hold for the method and conditions named. In cells and extracts the contact can be indirect. Binding can be weak; no strength is given. Sequences can lack the tags named with a protein.
How the values were obtained:
[1] = biological target: T1, FLAG-JIL-1 (D. melanogaster) (UniProt Q9V3I5); assay: co-IP; extracts of Sf21 cells co-expressing FLAG-JIL-1 (or its C-terminal deletion mutants) and untagged JASPer (or its deletion mutants); IP with α-FLAG beads; western blot with α-JIL-1 and α-JASPer
T1 sequence: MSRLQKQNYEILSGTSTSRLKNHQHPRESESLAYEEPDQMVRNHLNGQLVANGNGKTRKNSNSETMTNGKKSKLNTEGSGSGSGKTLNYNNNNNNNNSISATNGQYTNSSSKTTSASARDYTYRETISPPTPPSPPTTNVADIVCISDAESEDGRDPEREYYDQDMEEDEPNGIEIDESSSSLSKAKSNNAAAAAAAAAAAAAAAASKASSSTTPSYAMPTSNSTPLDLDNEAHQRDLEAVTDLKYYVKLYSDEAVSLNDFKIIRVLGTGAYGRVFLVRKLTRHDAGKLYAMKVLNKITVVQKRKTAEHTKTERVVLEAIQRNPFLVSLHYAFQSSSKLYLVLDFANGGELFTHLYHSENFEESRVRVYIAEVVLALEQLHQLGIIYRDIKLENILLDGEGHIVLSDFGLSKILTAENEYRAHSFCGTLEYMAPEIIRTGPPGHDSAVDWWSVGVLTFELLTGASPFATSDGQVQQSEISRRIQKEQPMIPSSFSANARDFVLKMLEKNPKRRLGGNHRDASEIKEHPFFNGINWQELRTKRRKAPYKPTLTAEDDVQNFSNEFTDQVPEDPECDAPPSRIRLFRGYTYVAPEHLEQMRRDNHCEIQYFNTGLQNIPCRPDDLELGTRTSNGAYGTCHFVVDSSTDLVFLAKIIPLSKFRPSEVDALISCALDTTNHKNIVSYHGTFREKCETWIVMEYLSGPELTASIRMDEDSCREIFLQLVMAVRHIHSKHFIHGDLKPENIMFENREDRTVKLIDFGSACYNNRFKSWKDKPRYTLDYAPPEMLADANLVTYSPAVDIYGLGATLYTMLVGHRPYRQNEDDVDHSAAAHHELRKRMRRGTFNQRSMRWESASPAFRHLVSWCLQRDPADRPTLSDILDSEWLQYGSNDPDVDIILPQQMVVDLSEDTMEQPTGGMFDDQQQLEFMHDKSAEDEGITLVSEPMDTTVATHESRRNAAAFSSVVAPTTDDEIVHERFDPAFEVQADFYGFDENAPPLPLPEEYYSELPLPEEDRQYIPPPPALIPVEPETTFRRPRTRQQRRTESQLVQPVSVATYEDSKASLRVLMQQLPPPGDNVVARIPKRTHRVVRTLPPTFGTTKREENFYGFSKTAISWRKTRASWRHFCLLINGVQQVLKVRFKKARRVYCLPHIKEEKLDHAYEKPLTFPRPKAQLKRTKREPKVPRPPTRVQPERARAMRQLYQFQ

[2] = biological target: T1, FLAG-JIL-1 (D. melanogaster); assay: co-purification by FLAG-tag affinity chromatography; FLAG-JIL-1 and untagged JASPer co-expressed in Sf21 (baculovirus dual expression), bound to FLAG-M2 beads, washed with 1 M NaCl, eluted with FLAG peptide; SDS-PAGE with Coomassie
[3] = biological target: T1, FLAG-JIL-1 (D. melanogaster); assay: co-IP; Sf21 extracts with JJ-complex (FLAG-JIL-1/untagged JASPer) and with FLAG-MSL1/untagged MSL2 and FLAG-MSL3 mixed to similar concentrations; IP with antibodies specific for the bait (MSL1 or JIL-1)

Substance | binding [1] | binding [2] | binding [3]
JASPer-ΔLEDGF (D. melanogaster) | no binding | – | –
untagged JASPer (D. melanogaster) | binds | binds | binds

— paper PMC6877644
